# Assay results: patent US20130183294A1, “METHODS OF USING FGF19 MODULATORS” (GENENTECH, INC., priority 2012, published 2013)
# At least one structure is not confirmed: it was looked up by name or label, or the drawing left a doubt.
# System: Caco-2 cells
# Assay: Gene expression (qRT-PCR) in intestinal epithelial (Caco-2) cells
# Format: cell-based, human
# Conditions: 50 μM, 24 h, p value<0.001
smiles,measurement,value
"C[C@H](CCC(=O)O)[C@H]1CC[C@H]2[C@@H]3CC[C@@H]4C[C@H](O)CC[C@]4(C)[C@H]3C[C@H](O)[C@]12C [DCA, deoxycholic acid]",FGF19 mRNA expression,significantly induced
